The nature of the data set: rinsability of the preservative solution from the adsorber column. To be noted: for elution / rinsing behavior relative to PHMB: rinsing operation of the column; for more remained in the columns during preservation: subsequent tests.

With `N[C@@H](Cc1c[nH]c2ccccc12)C(=O)O` [Tryptophan, tryptophan], the “elution / rinsing behavior relative to PHMB” value is listed as “removed from the column to the same extent as PHMB” and the “more remained in the columns during preservation” value is 8%. Moreover, the “elution / rinsing behavior relative to PHMB” value (listed as Trp) is “very similar to that of PHMB”.
In the case of “poly(hexamethylene)biguanide [PHMB, reference compound]”, the “more remained in the columns during preservation” value is 20%. Further, the “PHMB detected at the end of the rinsing operation” value (limit of detection of PHMB = 0.90 mg/L) was less than 0.90 mg/L.

(Values after patent US8663668B2, “Preservative for medical devices” (Fresenius Medical Care Deutschland GmbH, priority 2004, dated 2014).)
